Data as given in patent US7495127B2, “Potassium channel opener” (Mitsubishi Tanabe Pharma Corporation, priority 2001, dated 2009).
Some results were stated once for a whole list of compounds, not compound by compound. For at least one compound, name, drawing or mass did not settle the structure.

The chains behind the UniProt entries cited, without tags or fusion partners. Where a name states a change or a piece, a line headed by the entry shows the natural chain unless it says otherwise.
UniProt Q62976: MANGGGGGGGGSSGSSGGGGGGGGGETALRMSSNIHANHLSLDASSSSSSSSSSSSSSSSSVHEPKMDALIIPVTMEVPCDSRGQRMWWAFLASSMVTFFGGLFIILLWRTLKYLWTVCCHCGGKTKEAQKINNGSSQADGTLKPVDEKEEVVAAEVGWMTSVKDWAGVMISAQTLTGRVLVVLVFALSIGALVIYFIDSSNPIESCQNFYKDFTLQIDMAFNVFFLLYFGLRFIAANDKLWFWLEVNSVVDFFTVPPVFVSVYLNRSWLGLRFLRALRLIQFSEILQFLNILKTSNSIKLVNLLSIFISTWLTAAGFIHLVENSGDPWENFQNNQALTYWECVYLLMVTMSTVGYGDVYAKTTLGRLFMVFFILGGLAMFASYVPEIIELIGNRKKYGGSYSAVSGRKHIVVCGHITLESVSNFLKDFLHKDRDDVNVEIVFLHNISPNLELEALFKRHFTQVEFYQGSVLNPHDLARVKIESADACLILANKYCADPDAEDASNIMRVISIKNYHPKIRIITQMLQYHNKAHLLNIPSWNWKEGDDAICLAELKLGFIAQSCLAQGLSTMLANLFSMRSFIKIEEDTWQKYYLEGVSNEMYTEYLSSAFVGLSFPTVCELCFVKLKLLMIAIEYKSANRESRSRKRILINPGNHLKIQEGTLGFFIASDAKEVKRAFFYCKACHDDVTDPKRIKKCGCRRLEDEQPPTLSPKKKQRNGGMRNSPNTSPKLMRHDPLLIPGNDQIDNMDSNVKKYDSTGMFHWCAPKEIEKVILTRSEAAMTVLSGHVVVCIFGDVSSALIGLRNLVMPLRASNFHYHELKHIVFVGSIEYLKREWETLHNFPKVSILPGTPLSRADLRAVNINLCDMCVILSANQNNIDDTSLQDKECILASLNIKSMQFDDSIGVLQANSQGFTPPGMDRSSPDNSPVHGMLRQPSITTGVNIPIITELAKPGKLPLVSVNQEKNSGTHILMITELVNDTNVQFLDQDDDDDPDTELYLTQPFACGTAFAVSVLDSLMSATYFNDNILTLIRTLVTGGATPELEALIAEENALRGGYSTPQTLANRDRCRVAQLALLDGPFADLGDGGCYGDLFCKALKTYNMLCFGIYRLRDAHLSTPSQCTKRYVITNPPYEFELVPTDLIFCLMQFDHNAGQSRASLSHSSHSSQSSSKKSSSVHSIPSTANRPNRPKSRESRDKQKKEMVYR

Molecular target: T1, BKαβ1 (Rattus norvegicus, UniProt Q62976)
T1 construct: expressed in transfected cells; host or cells: HEK293
Assay: BK channel currents in single HEK293 cell expressing BK(α+β1) channels (HEKBKαβ1) under whole-cell voltage clamp
Type: cell-based
Details: peak outward current at +40 mV relative to value before application; p<0.05 versus 1.0
Description: Effects of test compounds on BK channel currents were examined in single HEK293 cell expressing BK(α+β1) channels (hereinafter referred to as HEKBKαβ1) under whole-cell voltage clamp. The Ca^2+ concentration in the pipette solution was fixed at pCa 6.5 using a Ca^2+-EGTA buffer. Depolarization from −60 mV to +30 mV induced outward currents in both native HEK293 and HEKBKαβ1, but the current density was much higher in the latter (the current density at the peak: 11.0±1.8 and 95.2±20.9 pA/pF, n=5 and 6, respectively, p<0.05). […] This enhancement of outward current by pimaric acid could be removed completely by washout. Effects of other test compounds were also examined in this manner. The peak amplitude of outward current at +40 mV in the presence of 1, 3, and 10 μm resin acids was measured relative to the value taken just before the application (FIG. 6B).

Row | SMILES | concentration showing significant potentiating effects on outward current [μm]
1 | CC[C@@]1(C)CC[C@H]2C(=CCC3[C@]2(C)CCC[C@]3(C)C(=O)O)C1 (stereo partly drawn) [dihydroisopimaric acid] | ≥ 1
2 | CC[C@@]1(C)CC[C@H]2C(=CC[C@H]3[C@](C)(CO)CCC[C@]23C)C1 [dihydroisopimarinol] | ≥ 1
3 | C=C[C@@]1(C)CC[C@H]2C(=CC[C@@H]3[C@]2(C)CCC[C@@]3(C)C(=O)O)C1 [isopimaric acid] | ≥ 1
